Variants at the background level are over-represented here.
What was measured:
[1] = system: biotinyl-Trp-oxazolone; experiment: self-aminoacylation, catalytic enhancement (BWO) (fold over background); higher = more active; k-Seq, kA / k0A0; sequences stand for … in GGGAAUGGAUCCACAUCUACGAAUUC…UUCACUGCAGACUUGACGAAGCUG
Summary of the method: (§1)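 The uncatalyzed rate is the low-activity peak of a bimodal Gaussian fit, and catalytic enhancement is median kA divided by it. The kA values came from pseudo-first-order fits, with 1000 bootstraps, of per-sequence fraction reacted measured by streptavidin capture, triplicate qPCR and Illumina sequencing. Mutagenized RNA pools with a 21-nt variable region (0.43 μM) were reacted with each biotinyl-aminoacyl-oxazolone at 2–1250 μM in 50 μL HEPES/NaCl/KCl/MgCl2/CaCl2 buffer with 5% acetonitrile, pH 6.9–7.0, for 90 minutes at room temperature.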

[2] = system: biotinyl-Leu-oxazolone; experiment: self-aminoacylation, catalytic enhancement (BLO) (fold over background); higher = more active; k-Seq, kA / k0A0; sequences stand for … in GGGAAUGGAUCCACAUCUACGAAUUC…UUCACUGCAGACUUGACGAAGCUG
Summary of the method: as §1

[3] = system: biotinyl-Val-oxazolone; experiment: self-aminoacylation, catalytic enhancement (BVO) (fold over background); higher = more active; k-Seq, kA / k0A0; sequences stand for … in GGGAAUGGAUCCACAUCUACGAAUUC…UUCACUGCAGACUUGACGAAGCUG
Summary of the method: as §1

[4] = system: biotinyl-Ile-oxazolone; experiment: self-aminoacylation, catalytic enhancement (BIO) (fold over background); higher = more active; k-Seq, kA / k0A0; sequences stand for … in GGGAAUGGAUCCACAUCUACGAAUUC…UUCACUGCAGACUUGACGAAGCUG
Summary of the method: as §1

[5] = system: biotinyl-Met-oxazolone; experiment: self-aminoacylation, catalytic enhancement (BMO) (fold over background); higher = more active; k-Seq, kA / k0A0; sequences stand for … in GGGAAUGGAUCCACAUCUACGAAUUC…UUCACUGCAGACUUGACGAAGCUG
Summary of the method: as §1

[6] = system: biotinyl-Phe-oxazolone; experiment: self-aminoacylation, catalytic enhancement (BFO) (fold over background); higher = more active; k-Seq, kA / k0A0; sequences stand for … in GGGAAUGGAUCCACAUCUACGAAUUC…UUCACUGCAGACUUGACGAAGCUG
Summary of the method: as §1

Sequence	self-aminoacylation [1]	self-aminoacylation [2]	self-aminoacylation [3]	self-aminoacylation [4]	self-aminoacylation [5]	self-aminoacylation [6]
CCACAGUUCGAGCAAUCGGUC [Fam1B.1 aminoacylation ribozyme variant]	1.71	1.82	1.59	1.59	1.49	0.96
AACUUUGCUAAUAGACGCAAG [Fam3.1 aminoacylation ribozyme variant]	1.18	1.08	1.55	1.59	1.22	1.49
CUACUUCAAACAAUUGGUCAG [Fam1A.1 aminoacylation ribozyme variant]	0.783	0.759	0.858	0.824	0.701	0.976
AUUACCCUGGACAUCGUGUGA [Fam2.1 aminoacylation ribozyme variant]	2.5	2.45	1.44	1.39	2.41	10.9
CUAAUUCAAACAAUCGGACUG [Fam1A.1 aminoacylation ribozyme variant]	0.816	0.451	0.464	0.555	0.43	1.19
CCACACUUGAAGCAAUCGGUC [Fam1B.1 aminoacylation ribozyme variant]	0.805	0.735	0.926	0.836	0.782	0.778
CCACUCUUGAAGCAAUCGGUC [Fam1B.1 aminoacylation ribozyme variant]	0.852	0.97	1	0.986	0.973	1.01
CUACUUCAAUCAAUGGGUCUG [Fam1A.1 aminoacylation ribozyme variant]	0.627	0.912	0.809	0.889	0.801	0.579
CUCCUUCAAACAAUCGGGCUG [Fam1A.1 aminoacylation ribozyme variant]	14.4	1.98	1.84	1.51	1.53	15.1
CUACUUCUAAGAAUCGGUCUG [Fam1A.1 aminoacylation ribozyme variant]	0.558	0.664	0.743	0.696	0.804	0.516
CCACACUUCCAGCAAACGGUC [Fam1B.1 aminoacylation ribozyme variant]	0.71	0.772	1.21	0.832	0.53	1.06
AUUCACCUAGGUCAUUGGAUG [Fam2.2 aminoacylation ribozyme variant]	0.349	0.541	0.546	0.605	0.56	0.531
AUUCACCUAGGUCAUCGGACG [Fam2.2 aminoacylation ribozyme variant]	0.685	0.707	0.744	0.617	0.698	0.655
AAGUUAGAUAAUAGUCGCAAG [Fam3.1 aminoacylation ribozyme variant]	0.921	0.885	0.934	1.16	0.646	1.27
AAGUUUGCCAAUAGUAGCAAG [Fam3.1 aminoacylation ribozyme variant]	0.758	0.909	1.07	0.927	1.34	1.47
CUACUUCAAACAAUCGGCCUU [Fam1A.1 aminoacylation ribozyme variant]	1.63	1.6	1.61	1.64	1.43	2.48
CCUCACUUCAAGCAAGCGGUC [Fam1B.1 aminoacylation ribozyme variant]	0.921	1.07	0.996	0.84	0.882	1.15
AUUCAGGUAGGUCAUCGGGUG [Fam2.2 aminoacylation ribozyme variant]	5.12	5.83	4.23	3.68	4.59	30.7
AUUACCCUGGUCAACGAGCGA [Fam2.1 aminoacylation ribozyme variant]	0.589	1.14	1.4	1.49	1.04	0.989
CUUACCCUGGUCGUCGAGUGA [Fam2.1 aminoacylation ribozyme variant]	1.64	0.967	1.22	0.904	1.29	5.47
CCACACUUCAAGCAGUCCGUC [Fam1B.1 aminoacylation ribozyme variant]	0.417	0.444	0.708	0.554	0.412	0.747
AAGAUAGCUAAUAGUCGCAAG [Fam3.1 aminoacylation ribozyme variant]	1.34	1.82	1.34	1.63	1.57	2.4
CUACUUCAAACCAUCUGUCUG [Fam1A.1 aminoacylation ribozyme variant]	0.541	0.565	0.727	0.684	0.558	0.823
CUACUUCAAACAAUCUGACUG [Fam1A.1 aminoacylation ribozyme variant]	0.58	0.835	0.746	0.902	0.786	1.1
AUCACCCUGGUCAUCGAUUGA [Fam2.1 aminoacylation ribozyme variant]	1.35	1.19	1.02	1.14	1.18	0.66
AAGUUUGAUAAUAGUCGCACG [Fam3.1 aminoacylation ribozyme variant]	1.43	0.699	0.779	0.91	0.633	0.894

Sequence	self-aminoacylation [1]	self-aminoacylation [2]	self-aminoacylation [3]	self-aminoacylation [4]	self-aminoacylation [5]	self-aminoacylation [6]
AUUACCCGGGUCAUCGAUUGA [Fam2.1 aminoacylation ribozyme variant]	1.57	1.09	0.962	1.14	0.871	1.14
UCACACUUCAAGAAAUCGGUC [Fam1B.1 aminoacylation ribozyme variant]	6.06	0.906	0.888	0.947	0.819	7.38
CUACUUCAAUCAAUCGCUCUG [Fam1A.1 aminoacylation ribozyme variant]	0.702	0.577	0.736	0.737	0.675	0.772
AUACUUCAAACAACCGGUCUG [Fam1A.1 aminoacylation ribozyme variant]	0.767	1.02	1.16	1.05	1.08	0.984
AAGUUUGCUCAUAGACGCAAG [Fam3.1 aminoacylation ribozyme variant]	0.627	0.548	0.564	0.587	0.451	0.968
CUACUUCAAACAGUCGGUCUG [Fam1A.1 aminoacylation ribozyme variant]	0.603	0.805	0.789	0.787	0.794	0.746
AUUCACCGAGGUGAUCGGGUG [Fam2.2 aminoacylation ribozyme variant]	3.05	6.59	4.15	3.8	4.75	29.6
AAGUUUGCUAAUAAGCGCAAG [Fam3.1 aminoacylation ribozyme variant]	0.744	0.503	0.412	0.524	0.545	0.606
CCACACUUCAAGGAAUCGGUA [Fam1B.1 aminoacylation ribozyme variant]	0.902	1.23	1.18	1.26	1	0.499
CUAGUUCAAACAAUCGUUCUG [Fam1A.1 aminoacylation ribozyme variant]	0.588	0.625	0.628	0.747	0.643	0.779
AUGCACCGAGGUCAUCGGGUG [Fam2.2 aminoacylation ribozyme variant]	6.46	6.58	3.66	3.81	5.79	40.4
AUUAUCCCGGUCAUCGAGUGA [Fam2.1 aminoacylation ribozyme variant]	11	10.6	4.35	4.32	8.46	61.2
CCACACUUGUAGCAAUCGGUC [Fam1B.1 aminoacylation ribozyme variant]	0.659	1.08	1.19	1.06	1.03	0.817
CUACAUCAAACAAUCAGUCUG [Fam1A.1 aminoacylation ribozyme variant]	0.597	0.572	0.73	0.75	0.664	1.39
CCACCCUUCAAGCAAUCGCUC [Fam1B.1 aminoacylation ribozyme variant]	2.73	2.55	2.28	1.65	1.87	0.977
AGGUUUGCUAAUAGUCGCAAG [Fam3.1 aminoacylation ribozyme variant]	6.61	1.41	1.38	1.56	1.75	22
CCACACUUCAAACAAGCGGUC [Fam1B.1 aminoacylation ribozyme variant]	0.603	0.728	0.746	0.922	0.68	0.971
AAGUUUGCUAAUUAUCGCAAG [Fam3.1 aminoacylation ribozyme variant]	0.8	0.554	0.794	0.875	0.736	0.951
AUUCACUUAGGUCAUCAGGUG [Fam2.2 aminoacylation ribozyme variant]	1.57	1.68	1.26	1.23	1.52	1.49
CCACUUCAAACUAUCGGUCUG [Fam1A.1 aminoacylation ribozyme variant]	1.39	1.16	1.46	1.44	1.39	0.866
CUACUUCAAACGAUCGGUUUG [Fam1A.1 aminoacylation ribozyme variant]	1.24	0.845	1	0.856	0.741	0.963
AUUACCCUGGUCUUCGAGUCA [Fam2.1 aminoacylation ribozyme variant]	0.688	0.903	0.873	0.953	0.844	0.638
CUACUUCAAACAGUCGGUCGG [Fam1A.1 aminoacylation ribozyme variant]	1.02	1.16	0.872	1.12	1.15	0.776
AUUUACCUAGGUCAUCGGUUG [Fam2.2 aminoacylation ribozyme variant]	1.07	0.797	0.939	0.824	1.08	0.656
CUACUAAAAACAAUCGGUCUG [Fam1A.1 aminoacylation ribozyme variant]	0.619	0.561	0.765	0.741	0.661	0.696

— the supplement of paper PMC9233669
